Test results taken from the supplement of paper PMC4604168 (melanoma cell lines).
This is one part of the list. Repeats are few or missing, and single values can be far off.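 Cells were imaged in 1,536-well plates, and nuclei stained with an antibody against cleaved PARP were counted against all DNA-stained nuclei to give the apoptosis fraction. Screening doses were chosen to leave most cells alive, and resting and induced cleaved-PARP levels differ strongly between cell lines.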

What was measured:
Assay in all cases: cleaved PARP positive nuclei fraction relative to DMSO control; melanoma cells; higher = more apoptosis
Settings in all cases: library dose: low library concentration; 72 h
WM115 = test system: WM115
WM1716 = test system: WM1716
WM1745 = test system: WM1745
WM3526 = test system: WM3526
WM3619 = test system: WM3619
WM451Lu = test system: WM451Lu

SMILES	cleaved PARP positive nuclei fraction (WM115)	cleaved PARP positive nuclei fraction (WM1716)	cleaved PARP positive nuclei fraction (WM1745)	cleaved PARP positive nuclei fraction (WM3526)	cleaved PARP positive nuclei fraction (WM3619)	cleaved PARP positive nuclei fraction (WM451Lu)
Cc1cc(N2CCOCC2)cc2[nH]c(-c3c(NC[C@@H](O)c4cccc(Cl)c4)cc[nH]c3=O)nc12 + CN(NC(=O)CC(=O)NN(C)C(=S)c1ccccc1)C(=S)c1ccccc1 [STA4783] (first compound 0.2 µM, partner dose 0.006 µM)	102%	233%	387%	60.6%	171%	31.2%
COc1cc(Nc2ncc(F)c(Nc3ccc4c(n3)NC(=O)C(C)(C)O4)n2)cc(OC)c1OC [Tamatinib] + CN(C)S(=O)(=O)c1ccc2c(c1)/C(=C/c1cc3c([nH]1)CCCC3)C(=O)N2 [SU6656] (first compound 0.4 µM, partner dose 0.4 µM)	414%	172%	247%	68.7%	83.6%	25.6%
CO[C@@H]1[C@H](N(C)C(=O)c2ccccc2)C[C@H]2O[C@]1(C)n1c3ccccc3c3c4c(c5c6ccccc6n2c5c31)C(=O)NC4 [Midostaurin] + NC(=O)Nc1cc(-c2cccc(F)c2)sc1C(=O)N[C@H]1CCCNC1 [AZD7762] (first compound 0.08 µM, partner dose 0.02 µM)	245%	180%	107%	41%	246%	32.1%
O=C(CCCCCCC(=O)Nc1ccccc1)NO [vorinostat] + Cn1cncc1[C@@](N)(c1ccc(Cl)cc1)c1ccc2c(c1)c(-c1cccc(Cl)c1)cc(=O)n2C [tipifarnib] (first compound 0.08 µM, partner dose 0.01 µM)	167%	149%	96.7%	80.8%	109%	130%
C#Cc1cccc(Nc2ncnc3cc(OCCOC)c(OCCOC)cc23)c1 [erlotinib] + c1cc(-c2cnn3cc(-c4ccc(OCCN5CCCCC5)cc4)cnc23)ccn1 [Dorsomorphin] (first compound 0.8 µM, partner dose 0.4 µM)	202%	174%	125%	154%	94.7%	79.1%
OCc1c[nH]c2ccccc12 [Indole-3-carbinol] + CN(NC(=O)CC(=O)NN(C)C(=S)c1ccccc1)C(=S)c1ccccc1 [STA4783] (first compound 0.8 µM, partner dose 0.006 µM)	146%	219%	180%	75.6%	144%	66.4%
C#Cc1cccc(Nc2ncnc3cc(OCCOC)c(OCCOC)cc23)c1 [erlotinib] + COc1cc2c(Oc3ccc4[nH]c(C)cc4c3F)ncnc2cc1OCCCN1CCCC1 [cediranib] (first compound 0.8 µM, partner dose 0.4 µM)	108%	14.9%	106%	60.7%	92.4%	68.5%
Clc1ccc(Nc2nnc(Cc3ccncc3)c3ccccc23)cc1 [vatalanib] + Cn1c(Nc2ccc(C(F)(F)F)cc2)nc2cc(Oc3ccnc(-c4ncc(C(F)(F)F)[nH]4)c3)ccc21 [CHIR265] (first compound 2 µM, partner dose 0.08 µM)	738%	86.1%	134%	80.6%	122%	106%
C#Cc1cccc(Nc2ncnc3cc(OCCOC)c(OCCOC)cc23)c1 [erlotinib] + O=c1cc(-c2cccc3c2Sc2ccccc2S3)oc(N2CCOCC2)c1 [KU55933] (first compound 0.8 µM, partner dose 1 µM)	58.8%	65.6%	121%	176%	74.7%	142%
Cn1c(Nc2ccc(C(F)(F)F)cc2)nc2cc(Oc3ccnc(-c4ncc(C(F)(F)F)[nH]4)c3)ccc21 + Cc1cc([N+](=O)[O-])ccc1NS(=O)(=O)c1cc(Cl)ccc1Cl [FH535] (first compound 0.08 µM, partner dose 1 µM)	1910%	290%	127%	161%	218%	308%
C[C@]1(c2nc3c(C(N)=O)cccc3[nH]2)CCCN1 [Veliparib] + CN(C)S(=O)(=O)c1ccc2c(c1)/C(=C/c1cc3c([nH]1)CCCC3)C(=O)N2 [SU6656] (first compound 1.4 µM, partner dose 0.4 µM)	341%	57.2%	95.3%	56.3%	79.7%	262%
NC(=O)Nc1cc(-c2cccc(F)c2)sc1C(=O)N[C@H]1CCCNC1 + O=C(Nc1cccc(Cl)c1)Nc1ncc(CCNc2ncnc3ccsc23)s1 [SNS314] (first compound 0.02 µM, partner dose 0.0008 µM)	211%	169%	96.6%	60.7%	114%	96.4%
Nc1cccc2c1CN(C1CCC(=O)NC1=O)C2=O (stereo not drawn) [lenalidomide] + Cc1cc([N+](=O)[O-])ccc1NS(=O)(=O)c1cc(Cl)ccc1Cl [FH535] (first compound 1 µM, partner dose 1 µM)	44.9%	91.7%	110%	70.2%	79.5%	49.6%
